Data as given in paper doi:10.1101/2020.12.29.424754.
Results are given in words; binding and its absence hold for the method and conditions named. In cells and extracts the contact can be indirect. A yes stands for co-enrichment or nearness to the bait. Other partners may have been found.

Protein sequences, listed by entry. Tags and fused reporters are not part of them. Lines headed by an entry give the natural chain unless they say otherwise; changes in a name come on top.
UniProt Q57ZD6: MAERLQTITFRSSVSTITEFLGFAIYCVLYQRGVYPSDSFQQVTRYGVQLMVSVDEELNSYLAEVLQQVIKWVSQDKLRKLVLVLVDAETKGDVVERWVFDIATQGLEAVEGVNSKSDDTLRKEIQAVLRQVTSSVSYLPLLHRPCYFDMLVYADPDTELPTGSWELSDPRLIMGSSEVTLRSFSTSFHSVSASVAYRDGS
UniProt Q8WRU0: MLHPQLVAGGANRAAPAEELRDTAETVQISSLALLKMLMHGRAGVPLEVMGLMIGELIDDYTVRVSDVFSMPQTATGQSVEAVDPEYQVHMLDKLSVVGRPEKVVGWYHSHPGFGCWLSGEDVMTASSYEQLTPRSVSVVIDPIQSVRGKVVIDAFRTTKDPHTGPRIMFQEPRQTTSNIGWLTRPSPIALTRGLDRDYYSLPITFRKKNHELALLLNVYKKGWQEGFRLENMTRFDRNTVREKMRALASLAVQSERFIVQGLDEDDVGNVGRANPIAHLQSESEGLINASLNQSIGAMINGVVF
UniProt Q9NCA0: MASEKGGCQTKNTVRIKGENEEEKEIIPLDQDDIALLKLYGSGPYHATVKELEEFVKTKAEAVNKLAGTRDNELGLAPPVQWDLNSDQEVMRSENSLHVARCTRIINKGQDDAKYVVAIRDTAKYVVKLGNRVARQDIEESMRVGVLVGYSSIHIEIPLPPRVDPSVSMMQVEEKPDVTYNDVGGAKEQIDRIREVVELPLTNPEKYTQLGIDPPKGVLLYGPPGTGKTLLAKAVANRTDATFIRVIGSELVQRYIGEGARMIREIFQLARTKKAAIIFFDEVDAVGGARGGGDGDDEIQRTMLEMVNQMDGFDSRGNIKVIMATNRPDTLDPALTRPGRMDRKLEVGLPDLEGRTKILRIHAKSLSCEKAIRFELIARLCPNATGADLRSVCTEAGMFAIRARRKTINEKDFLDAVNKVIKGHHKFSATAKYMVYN
UniProt Q9NC99: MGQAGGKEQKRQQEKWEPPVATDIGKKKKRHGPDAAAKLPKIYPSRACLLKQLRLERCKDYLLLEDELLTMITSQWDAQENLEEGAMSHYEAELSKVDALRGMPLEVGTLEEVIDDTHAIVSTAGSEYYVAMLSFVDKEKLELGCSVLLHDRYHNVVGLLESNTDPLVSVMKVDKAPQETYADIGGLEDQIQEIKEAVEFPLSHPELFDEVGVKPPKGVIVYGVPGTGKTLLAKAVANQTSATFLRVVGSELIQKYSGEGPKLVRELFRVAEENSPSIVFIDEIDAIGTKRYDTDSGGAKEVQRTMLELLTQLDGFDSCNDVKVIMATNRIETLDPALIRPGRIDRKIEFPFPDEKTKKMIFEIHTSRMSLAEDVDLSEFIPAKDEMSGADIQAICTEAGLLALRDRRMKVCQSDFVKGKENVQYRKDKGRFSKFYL
UniProt Q9NC98: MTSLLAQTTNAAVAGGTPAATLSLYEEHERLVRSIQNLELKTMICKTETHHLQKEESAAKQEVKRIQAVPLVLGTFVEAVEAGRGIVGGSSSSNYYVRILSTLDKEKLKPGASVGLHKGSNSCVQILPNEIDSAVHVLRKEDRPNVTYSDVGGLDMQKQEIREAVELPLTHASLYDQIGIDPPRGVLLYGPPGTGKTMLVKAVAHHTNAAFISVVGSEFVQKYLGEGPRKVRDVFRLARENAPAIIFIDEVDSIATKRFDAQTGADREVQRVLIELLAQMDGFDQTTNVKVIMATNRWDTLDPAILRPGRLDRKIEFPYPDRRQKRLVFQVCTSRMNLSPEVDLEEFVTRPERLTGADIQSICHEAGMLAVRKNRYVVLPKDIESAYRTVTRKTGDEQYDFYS

B1: RPT5 (protein, UniProt Q9NC96 1-445)
chain: MTQDTARATGGAAEGDRGGTSDASAAAQLSPEELENIDSLTNQAPRNRSTQLQREIHQLKNEERTMSSELAGLRREVEESQKRVRDSNKLPYLVASIAEVLDLEADDQDVEELNVGKKKSRHPQKSAIIKTSSRQTVFLPVVGLVDANKLSPQDLVGVNKDTFLVLEELPPEYDSRVKAMEIVEKPKEKYTDVGGLDKQINEMIEAVVLPITEKEKYVRIGIKPPKGVLLYGSPGTGKTMLARACAASTDACFLRLAGPQLVQMYIGEGARILRDAFALAKKRAPTIIFIDELDAIGSRRSDEGSKHGSREVQRRMLELLSLLDGFGSTDDVKVIAATNRIDVLDPALLRRGRIDRKVEFTLPDEEARAHILQIHSRRMALHGDVNFEEISRMTEDMNGAQLKAVCVEAGMLALRNERVYVAHEDFAEGVTAVQARKKSSLNYYA

Target: YFP-tagged TbMad2 (T. brucei) (UniProt Q57ZD6)
Experiment: affinity purification with mass spectrometry

binding	Molecule
binds	RPN11 (from UniProt Q8WRU0)
binds	RPT1 (from UniProt Q9NCA0)
binds	RPT2 (from UniProt Q9NC99)
binds	RPT3 (from UniProt Q9NC98)
binds	B1
